Results are given in words; binding and its absence hold for the method and conditions named. Binding seen in cells or lysates may run through a third protein.

Sequences of proteins named here, by UniProt entry; tags and fusion partners are left off. A change or cut given only in a name is not applied to a line headed by its entry.
UniProt O95714: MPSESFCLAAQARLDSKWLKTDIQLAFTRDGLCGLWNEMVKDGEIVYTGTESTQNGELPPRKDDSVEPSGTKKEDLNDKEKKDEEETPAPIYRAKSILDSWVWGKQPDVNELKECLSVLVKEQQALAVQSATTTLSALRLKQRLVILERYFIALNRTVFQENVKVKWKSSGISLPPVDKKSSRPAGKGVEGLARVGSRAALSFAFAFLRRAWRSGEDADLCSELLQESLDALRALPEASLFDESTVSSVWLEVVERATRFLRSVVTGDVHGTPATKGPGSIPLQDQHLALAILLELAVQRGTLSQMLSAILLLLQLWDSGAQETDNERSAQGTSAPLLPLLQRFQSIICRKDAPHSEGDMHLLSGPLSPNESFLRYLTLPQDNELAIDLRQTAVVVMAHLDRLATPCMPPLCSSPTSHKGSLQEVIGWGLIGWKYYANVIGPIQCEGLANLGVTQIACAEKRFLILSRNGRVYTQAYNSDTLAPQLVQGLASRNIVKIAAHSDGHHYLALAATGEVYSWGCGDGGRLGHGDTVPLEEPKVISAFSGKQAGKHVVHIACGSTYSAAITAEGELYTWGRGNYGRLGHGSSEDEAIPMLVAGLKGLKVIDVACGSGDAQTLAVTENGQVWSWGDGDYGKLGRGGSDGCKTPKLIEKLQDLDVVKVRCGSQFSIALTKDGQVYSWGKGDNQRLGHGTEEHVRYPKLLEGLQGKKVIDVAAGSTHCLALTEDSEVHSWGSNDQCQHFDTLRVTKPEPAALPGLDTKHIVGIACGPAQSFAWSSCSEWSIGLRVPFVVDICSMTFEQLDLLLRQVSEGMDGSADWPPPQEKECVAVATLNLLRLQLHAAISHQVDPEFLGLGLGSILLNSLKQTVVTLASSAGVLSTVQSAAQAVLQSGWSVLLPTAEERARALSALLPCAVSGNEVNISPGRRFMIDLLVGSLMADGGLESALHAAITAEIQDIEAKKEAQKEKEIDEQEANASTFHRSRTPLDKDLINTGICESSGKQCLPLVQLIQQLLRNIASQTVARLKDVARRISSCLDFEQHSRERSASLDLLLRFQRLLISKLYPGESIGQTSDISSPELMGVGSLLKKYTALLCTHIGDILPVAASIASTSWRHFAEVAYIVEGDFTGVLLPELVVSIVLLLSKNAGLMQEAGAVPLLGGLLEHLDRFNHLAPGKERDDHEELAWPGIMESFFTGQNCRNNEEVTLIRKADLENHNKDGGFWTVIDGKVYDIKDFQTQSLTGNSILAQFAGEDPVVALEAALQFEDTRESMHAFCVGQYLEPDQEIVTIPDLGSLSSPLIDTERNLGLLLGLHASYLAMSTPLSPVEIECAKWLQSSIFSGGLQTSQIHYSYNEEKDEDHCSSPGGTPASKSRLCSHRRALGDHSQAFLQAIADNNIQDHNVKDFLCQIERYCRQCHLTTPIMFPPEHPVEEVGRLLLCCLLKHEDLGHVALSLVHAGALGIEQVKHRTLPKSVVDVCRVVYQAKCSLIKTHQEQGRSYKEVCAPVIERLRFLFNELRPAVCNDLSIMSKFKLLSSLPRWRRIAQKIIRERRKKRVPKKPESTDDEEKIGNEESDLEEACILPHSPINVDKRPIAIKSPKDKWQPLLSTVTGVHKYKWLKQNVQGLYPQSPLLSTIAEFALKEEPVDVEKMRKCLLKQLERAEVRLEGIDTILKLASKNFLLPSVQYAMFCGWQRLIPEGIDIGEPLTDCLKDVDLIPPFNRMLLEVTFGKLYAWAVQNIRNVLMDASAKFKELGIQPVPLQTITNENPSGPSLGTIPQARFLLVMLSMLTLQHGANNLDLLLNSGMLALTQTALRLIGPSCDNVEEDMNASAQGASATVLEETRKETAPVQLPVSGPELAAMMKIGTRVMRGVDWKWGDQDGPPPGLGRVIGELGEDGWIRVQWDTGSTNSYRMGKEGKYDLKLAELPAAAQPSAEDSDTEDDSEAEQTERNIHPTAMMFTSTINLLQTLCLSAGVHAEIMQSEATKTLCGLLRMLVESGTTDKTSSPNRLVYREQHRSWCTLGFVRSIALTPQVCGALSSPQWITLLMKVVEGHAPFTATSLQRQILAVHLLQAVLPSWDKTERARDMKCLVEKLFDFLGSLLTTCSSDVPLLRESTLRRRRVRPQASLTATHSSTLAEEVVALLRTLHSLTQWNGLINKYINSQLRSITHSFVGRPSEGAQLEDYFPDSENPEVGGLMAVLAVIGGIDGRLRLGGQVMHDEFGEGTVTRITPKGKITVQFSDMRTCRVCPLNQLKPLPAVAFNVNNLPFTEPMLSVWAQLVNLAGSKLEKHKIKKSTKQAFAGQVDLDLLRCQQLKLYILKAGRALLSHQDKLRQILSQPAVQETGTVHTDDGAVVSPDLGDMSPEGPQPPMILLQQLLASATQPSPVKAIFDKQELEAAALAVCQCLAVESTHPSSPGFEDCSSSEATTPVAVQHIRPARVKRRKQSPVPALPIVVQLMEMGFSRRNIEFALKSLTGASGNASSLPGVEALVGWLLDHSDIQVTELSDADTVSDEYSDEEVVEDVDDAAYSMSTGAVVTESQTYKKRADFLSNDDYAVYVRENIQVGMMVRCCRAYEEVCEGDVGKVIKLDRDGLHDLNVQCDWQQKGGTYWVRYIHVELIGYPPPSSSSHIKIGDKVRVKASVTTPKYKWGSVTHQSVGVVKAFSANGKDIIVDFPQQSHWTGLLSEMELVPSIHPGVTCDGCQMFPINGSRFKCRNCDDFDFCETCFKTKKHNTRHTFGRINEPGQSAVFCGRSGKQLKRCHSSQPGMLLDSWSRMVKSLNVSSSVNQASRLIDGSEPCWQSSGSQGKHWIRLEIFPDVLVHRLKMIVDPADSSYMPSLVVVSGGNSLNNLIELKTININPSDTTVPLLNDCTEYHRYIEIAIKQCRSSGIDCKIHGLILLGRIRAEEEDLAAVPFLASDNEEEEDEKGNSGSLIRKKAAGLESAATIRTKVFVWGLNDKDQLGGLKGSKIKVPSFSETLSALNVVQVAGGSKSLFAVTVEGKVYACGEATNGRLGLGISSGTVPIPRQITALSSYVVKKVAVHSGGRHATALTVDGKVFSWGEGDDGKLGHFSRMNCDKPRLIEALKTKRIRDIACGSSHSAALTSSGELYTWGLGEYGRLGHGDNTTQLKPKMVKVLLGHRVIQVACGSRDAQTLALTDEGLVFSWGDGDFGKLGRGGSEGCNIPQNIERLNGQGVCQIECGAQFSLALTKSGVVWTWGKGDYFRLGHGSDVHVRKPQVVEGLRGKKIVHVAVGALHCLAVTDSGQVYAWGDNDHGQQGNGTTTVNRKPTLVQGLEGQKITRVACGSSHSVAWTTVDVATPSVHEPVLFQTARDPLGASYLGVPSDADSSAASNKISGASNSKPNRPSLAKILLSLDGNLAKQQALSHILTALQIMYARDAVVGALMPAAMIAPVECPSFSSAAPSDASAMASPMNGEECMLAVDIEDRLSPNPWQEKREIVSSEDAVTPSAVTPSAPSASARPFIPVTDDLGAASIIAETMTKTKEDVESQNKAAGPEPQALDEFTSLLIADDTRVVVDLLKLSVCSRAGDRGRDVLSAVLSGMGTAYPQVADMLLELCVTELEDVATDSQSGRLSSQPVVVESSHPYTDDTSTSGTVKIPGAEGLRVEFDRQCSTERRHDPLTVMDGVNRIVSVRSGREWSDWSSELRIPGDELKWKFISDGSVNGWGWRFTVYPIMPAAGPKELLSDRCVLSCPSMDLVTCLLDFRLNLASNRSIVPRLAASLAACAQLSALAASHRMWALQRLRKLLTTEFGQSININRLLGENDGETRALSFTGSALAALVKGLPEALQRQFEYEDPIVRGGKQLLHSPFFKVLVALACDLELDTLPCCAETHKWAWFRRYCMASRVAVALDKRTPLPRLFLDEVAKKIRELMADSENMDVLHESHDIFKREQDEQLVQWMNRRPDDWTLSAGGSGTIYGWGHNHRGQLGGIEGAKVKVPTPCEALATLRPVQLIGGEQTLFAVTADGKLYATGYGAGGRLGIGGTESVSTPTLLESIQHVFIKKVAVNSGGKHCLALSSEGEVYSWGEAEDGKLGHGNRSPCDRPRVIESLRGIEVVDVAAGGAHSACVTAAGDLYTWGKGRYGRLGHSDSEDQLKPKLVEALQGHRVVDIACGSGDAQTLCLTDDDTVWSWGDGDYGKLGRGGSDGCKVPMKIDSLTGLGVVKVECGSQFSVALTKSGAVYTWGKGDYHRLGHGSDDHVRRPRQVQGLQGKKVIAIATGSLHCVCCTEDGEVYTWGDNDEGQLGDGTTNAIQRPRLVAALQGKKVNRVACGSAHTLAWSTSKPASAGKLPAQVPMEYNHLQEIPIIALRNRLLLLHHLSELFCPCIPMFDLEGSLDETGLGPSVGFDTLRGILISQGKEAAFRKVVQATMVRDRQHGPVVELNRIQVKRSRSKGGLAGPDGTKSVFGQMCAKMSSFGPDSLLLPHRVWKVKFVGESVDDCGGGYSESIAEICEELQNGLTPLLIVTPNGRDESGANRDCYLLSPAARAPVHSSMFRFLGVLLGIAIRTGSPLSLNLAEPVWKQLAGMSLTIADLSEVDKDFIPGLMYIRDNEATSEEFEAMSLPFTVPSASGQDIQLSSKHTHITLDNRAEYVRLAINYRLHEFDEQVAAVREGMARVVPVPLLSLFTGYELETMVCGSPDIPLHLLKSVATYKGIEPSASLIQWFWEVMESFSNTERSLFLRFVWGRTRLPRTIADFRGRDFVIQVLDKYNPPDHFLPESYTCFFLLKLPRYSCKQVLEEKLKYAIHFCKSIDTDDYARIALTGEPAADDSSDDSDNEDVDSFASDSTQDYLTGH
UniProt Q9UGI0: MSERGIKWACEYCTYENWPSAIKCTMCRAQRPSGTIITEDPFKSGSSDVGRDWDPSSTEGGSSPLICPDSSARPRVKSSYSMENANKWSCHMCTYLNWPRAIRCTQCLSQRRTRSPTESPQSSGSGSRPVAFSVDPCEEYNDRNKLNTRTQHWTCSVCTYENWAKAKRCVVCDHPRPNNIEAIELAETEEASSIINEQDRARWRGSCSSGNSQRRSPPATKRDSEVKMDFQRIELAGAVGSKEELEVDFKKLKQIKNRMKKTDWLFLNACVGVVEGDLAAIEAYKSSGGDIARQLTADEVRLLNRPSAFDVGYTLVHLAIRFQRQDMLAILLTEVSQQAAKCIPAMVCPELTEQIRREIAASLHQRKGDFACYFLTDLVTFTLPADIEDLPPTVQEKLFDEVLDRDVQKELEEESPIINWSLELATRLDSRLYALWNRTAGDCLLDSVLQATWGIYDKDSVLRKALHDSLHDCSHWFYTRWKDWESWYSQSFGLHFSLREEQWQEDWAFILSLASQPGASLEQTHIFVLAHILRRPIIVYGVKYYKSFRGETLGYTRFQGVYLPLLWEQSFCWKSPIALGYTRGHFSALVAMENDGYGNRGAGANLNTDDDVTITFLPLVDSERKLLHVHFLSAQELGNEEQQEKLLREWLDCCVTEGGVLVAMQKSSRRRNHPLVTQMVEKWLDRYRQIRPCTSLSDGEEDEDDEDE

For this assay, the target named is endogenous HERC2 (human (endogenous in HEK293ET)) (UniProt O95714). Briefly: co-IP; antibodies to endogenous HECT ligases (4 μg) coupled to Dynabeads protein G; lysates of HEK293ET/HEK293T cells expressing 3xFLAG TRABID constructs; 1 h at RT; four washes in Triton Lysis Buffer; anti-FLAG blot.

For “3xFLAG_TRABID ΔOTU^TY>LV (from UniProt Q9UGI0) (domain or fragment)”, the binding result is given as “no binding”.

These data come from article PMC7948964.
